# Laboratory results as given in PubChem BioAssay AID493014 (National Center for Advancing Translational Sciences (NCATS), 2011).
# Among all 340,000 compounds or so, about 170 (0.05%) were called active. The inconclusive results got no clear call from the source; some entries with a clear call stand among them for comparison. Calls follow the shape of the dose curve; as a rule, active = well fitted inhibition curve with a large enough effect in the signal ratio, with a control signal flat (not every such curve was filed as active); inconclusive = small, poorly fitted or top-dose-only effect, or effect the other way, or a change in a side signal; inactive = flat fitted curve, though single readings scatter; the % refers to the signal ratio. Potencies of inconclusive entries are doubtful fits and often do not repeat.
# Assay: qHTS Assay to Find Inhibitors of Chronic Active B-Cell Receptor Signaling;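 as to activity change, negative = inhibition: plate controls were basal doxycycline-induced cells for no effect and cells given 10 µM MG132 for full effect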
# Conditions: ABC-DLBCL IkBa-CBG/CBR reporter, luminescence ratio (green luciferase fused to IkBa over red control in TMD8 lymphoma cells), 4 h; activity change, negative = inhibition: at 46.1 µM (top of the series)
# Procedure, shortened: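 TMD8 ABC-DLBCL cells carrying doxycycline-inducible green luciferase fused to IkappaBalpha plus unfused red luciferase were exposed to compounds (up to 46 uM) for 4 hrs at 37C. Activity came from the overlap-corrected green/red luminescence ratio.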
# Potency is read from the fitted curve at half-maximal effect.
SMILES,"activity change, negative = inhibition",Potency
Cn1c(/C(C#N)=C(\O)COc2ccc3ccccc3c2)nc2ccccc21,inactive: -0.0594%,
Oc1ccc(/C=N/N=C/c2ccc(O)c(O)c2)cc1O,,"inconclusive: 35.5 µM [falling, single point]"
Fc1ccc(-n2cc(-c3ccccc3)c3c(NCCc4ccccc4)ncnc32)cc1,inconclusive: 15.7%,
Cn1c(O)c(/C=C2\C=NN=C2c2ccccc2)sc1=S,,"inconclusive: 14.1 µM [rising, partial curve, poor fit]"
Cc1ccc(S(=O)(=O)N2CCC(C(=O)O)CC2)cc1,,"inconclusive: 11.2 µM [falling, partial curve, poor fit]"
CCn1nc(C)c(CN2CCC(Oc3ccc(C(=O)N4CCCC4)cc3)CC2)c1C,inactive: -11.4%,
NC(=O)Cc1nc(-c2ccc(F)cc2)cs1,inconclusive: 11.6%,
COc1cccc(N2CCN(C(=O)CN(c3cc(C)cc(C)c3)S(=O)(=O)c3c(C)noc3C)CC2)c1,inconclusive: 6.19%,
COc1ccc(C(=O)Nc2ccccc2C(=O)N/N=C/c2ccc(O)c(OC)c2)cc1,,"inconclusive: 3.98 µM [falling, partial curve, poor fit]"
C=CCN1C(=O)c2ccc(C(=O)N3CCC(C(N)=O)CC3)cc2C1=O,inactive: -1.22%,
CCOC(=O)c1cccc(NC(=S)N2CCN(c3ncc4c(=O)c(C(=O)O)cn(CC)c4n3)CC2)c1,inconclusive: 2.31%,
O=C(Nc1ccc(NC(=O)c2ccncc2)cc1)c1ccncc1,inconclusive: 7.46%,
CC[n+]1c(/C=C(\C)SC)sc2ccccc21,,"inconclusive: 22.4 µM [falling, single point]"
CN(C)CCn1c(=O)n(Cc2ccco2)c(=O)c2c3c(sc21)CCCCC3,inconclusive: 1.39%,
CN(c1ccccc1)S(=O)(=O)c1nnc(NC(=O)C2CCCCC2)s1,inactive: 2.11%,
O=C(CSc1nnc(-c2ccncc2)n1-c1ccccc1)N1CCN(c2ccc(Cl)cc2)CC1,inconclusive: 2.29%,
COc1ccc(OC(=O)c2cccc([N+](=O)[O-])c2)c(C(=O)/C=C/c2cccs2)c1,,"inconclusive: 29.1 µM [falling, single point]"
CC(=O)Nc1cccc(NC(=O)CSc2n[nH]c(-c3ccccc3)n2)c1,inactive: -8.46%,
O=C(Nc1ccncc1)c1cccs1,inconclusive: -14.3%,
C/C(CCC(C)C)=N\NC(=S)NCc1ccccc1,,"inconclusive: 22.4 µM [falling, single point]"
CC(C)(C)CN1CCN(Cc2c[nH]c3ccccc23)CC1CCO (stereo not drawn),inactive: 4.15%,
CC(=O)Nc1nc(COc2ccc3ccccc3c2)cs1,inconclusive: 409%,
NC(=S)Nc1cc(Cl)cc(Cl)c1,inconclusive: 1.44%,
NC(=O)C1CCN(c2ncnc3c2c(-c2ccccc2)cn3-c2ccccc2)CC1,inconclusive: 0.49%,
Cc1nc(NC(=O)C2CC2)sc1C(=O)Nc1cccc(Cl)c1,,"inconclusive: 3.16 µM [falling, partial curve, poor fit]"
CN(C(=O)c1ccc2c(Cl)c3c(nc2c1)CCC3)c1ccccc1,inconclusive: 1.23%,

SMILES,"activity change, negative = inhibition",Potency
O=C(O)c1ccc(S(=O)(=O)c2ccc3c(c2)C(=O)N(NC(=O)c2ccccc2)C3=O)cc1,,"inconclusive: 4.47 µM [falling, partial curve]"
Cc1nc2ccccc2n2c(-c3ccccc3)c3c(=O)n(C)c(=O)n(C)c3c12,inconclusive: -2.63%,
N=C1S/C(=C\c2cn[nH]c2-c2ccc(F)cc2)C(=O)N1c1ccccc1F,inconclusive: -0.7%,
Cc1c(C(=O)NCc2ccccn2)sc2nc(-c3ccc(F)cc3)cn12,inconclusive: 18.3%,
O=C1CC(c2ccc(F)cc2)Sc2nc(C34CC5CC(CC(C5)C3)C4)nn21 (stereo not drawn),inconclusive: 1.73%,
C=CCn1c(SCC(=O)NCCC2=CCCCC2)nc2ccc(Cl)cc2c1=O,inactive: 9.17%,
CC1CCCCN1C(=O)CSc1nc(N)cc(=O)[nH]1 (stereo not drawn),inconclusive: 13%,
CC(=O)N1CCN(C(=O)/C(C#N)=C/c2ccc3c(c2)OCO3)CC1,inconclusive: -9.87%,
O=C(O)CCC(=O)CCC(=O)c1ccc(Cl)cc1,,"inconclusive: 29.1 µM [falling, single point]"
CCOC(=O)/C(C#N)=C/c1c(N2CCN(c3ccc(OC)cc3)CC2)nc2c(C)cccn2c1=O,inconclusive: 2.76%,
Cc1ccc(N2CC(C(=O)OCc3ccccc3)CC2=O)cc1 (stereo not drawn),inconclusive: 7.56%,
CCOc1ccc(CCNC(=O)CN(C)S(=O)(=O)c2cccc3nsnc23)cc1OCC,inconclusive: 2.16%,
Cc1ccccc1C(=O)NCc1nnc(SCC(=O)N2c3ccccc3Sc3ccccc32)n1C,,"inconclusive: 6.51 µM [falling, single point]"
O=C1CCCN2N=C(SCC(=O)Nc3ccc(Cl)cc3)SC2=N1,inactive: 0.513%,
Cn1c(=O)c2c(nc(SCCOc3ccc4ccc(=O)oc4c3)n2C)n(C)c1=O,,"inconclusive: 4.11 µM [falling, partial curve, poor fit]"
NS(=O)(=O)c1ccc(Nc2ccc([N+](=O)[O-])c3nonc23)cc1,,"inconclusive: 35.5 µM [rising, partial curve, poor fit]"
CCc1c(C)c(C#N)c2[nH]c3ccccc3n2c1=S,,"inconclusive: 22.4 µM [rising, single point]"
CCOC(=O)c1c(/C=N/Nc2ccccc2)c2sc(C)cc2n1C,,"inconclusive: 14.6 µM [falling, partial curve]"
Cc1sc2ncnc(N3CCC(C(=O)NNC(=O)c4ccccc4Cl)CC3)c2c1C,inconclusive: 1.5%,
COc1ccc(NC(=O)c2ccc(COc3ccccc3Br)o2)cc1OC,,"inconclusive: 15.8 µM [falling, partial curve]"
CN1CCC(CN)(N2CCN(c3ccccc3)CC2)CC1,inconclusive: 4.01%,
O=C(C[n+]1ccccc1)N1CCCc2ccccc21,inactive: 14.4%,
N#C/C(=N\Nc1cccc(F)c1)C(=O)C1CC1,,"inconclusive: 0.1 µM [rising, full curve, poor fit]"
Cc1cc2cc(CNC(=O)C3CCCC3)ccc2n1C,inconclusive: 3.6%,
Cc1ccc(C(=O)NNC(=S)NC(=O)c2ccc(Cl)cc2Cl)cc1,,"inconclusive: 29.1 µM [falling, single point]"
Cc1c(CCOC(=O)c2cc([N+](=O)[O-])cc([N+](=O)[O-])c2)sc[n+]1CC(=O)c1ccc(Br)cc1,inactive: 8.6%,

# Among those listed so far, these have an NH in an aromatic ring.
SMILES,"activity change, negative = inhibition",Potency
CC(=O)Nc1cccc(NC(=O)CSc2n[nH]c(-c3ccccc3)n2)c1,inactive: -8.46%,
CC(C)(C)CN1CCN(Cc2c[nH]c3ccccc23)CC1CCO (stereo not drawn),inactive: 4.15%,
N=C1S/C(=C\c2cn[nH]c2-c2ccc(F)cc2)C(=O)N1c1ccccc1F,inconclusive: -0.7%,
CC1CCCCN1C(=O)CSc1nc(N)cc(=O)[nH]1 (stereo not drawn),inconclusive: 13%,
CCc1c(C)c(C#N)c2[nH]c3ccccc3n2c1=S,,"inconclusive: 22.4 µM [rising, single point]"

# Next part:

SMILES,"activity change, negative = inhibition",Potency
CCCC(=O)Nc1ccc2oc(-c3cccnc3)nc2c1,inactive: -0.245%,
CCOC(=O)c1c(NC(=O)COC(=O)Cc2n[nH]c(=O)c3ccccc23)sc(C(=O)N(C)C)c1C,inconclusive: -8.59%,
NNC(=O)c1cc2c(N3CCC(Cc4ccccc4)CC3)ncnc2s1,inconclusive: -8.84%,
CCOC(=O)Cc1nnc(Nc2cc(C)ccc2C)c2ccccc12,inconclusive: -19.1%,
O=C1C=C(c2cc(F)ccc2F)C[C@@H](c2ccc(F)cc2)C1,inactive: 13.1%,
Cc1ccccc1OCC(=O)O/N=C(\N)Cc1cccs1,inconclusive: 11.1%,
Cc1ccc(-c2csc(NC(=O)c3cccc(S(=O)(=O)N4CCN(C)CC4)c3)n2)cc1,inactive: 3.45%,
O=C(Cc1ccc(Cl)c(Cl)c1)Nc1ccccc1N1CCOCC1,,"inconclusive: 35.5 µM [falling, single point]"
C=CCN=c1scc(-c2ccc(F)cc2)n1/N=C/c1ccccn1,inactive: 0.409%,
CCN(CC)CC(=O)Nc1ccc(/C(C)=N/NC2=NCCN2)cc1,,"inconclusive: 25.1 µM [falling, single point]"
Cc1ccc(S(=O)(=O)N2CCOCC2)cc1NC(=O)CSc1nnnn1C,inactive: -4.68%,
Cc1ccc(C(C)C)c(OCCCCN2CCNCC2)c1,inconclusive: -14.1%,
Cc1sc2nc(C3CC3)nc(N3CCN(C(=O)c4ccc(Cl)cc4)CC3)c2c1C,,"inconclusive: 20 µM [falling, partial curve]"
O=C1Nc2ccccc2C1C(C[N+](=O)[O-])c1ccccn1 (stereo not drawn),inconclusive: -8.17%,
COc1cc(NC(=O)NNC(=O)c2cc3occc3n2C)cc(OC)c1OC,inconclusive: -17.7%,
O=C(N/N=C/c1ccc([N+](=O)[O-])o1)c1ccccc1NS(=O)(=O)c1cccs1,,"inconclusive: 6.31 µM [rising, partial curve, poor fit]"
NC(=S)Nc1nc2ccccc2s1,,"inconclusive: 0.631 µM [falling, full curve, poor fit]"
COc1ccc(-c2noc(CCC(=O)N3CCN(c4cccc(C)c4C)CC3)n2)cc1,inconclusive: 1.08%,
O=c1cc(-c2ccccc2)[nH]c2ccc(F)cc12,,"inconclusive: 20.6 µM [falling, single point]"
CNc1cc(CSc2ccc(Cl)cc2)nc(C)n1,,"inconclusive: 35.5 µM [rising, partial curve, poor fit]"
CCOC(=O)C1CCN(C(=O)CN(Cc2ccc(Cl)cc2)S(C)(=O)=O)CC1,inconclusive: -7.46%,
N#C/C(=C\c1ccc(N2CCOCC2)o1)C(=O)NC1CCCCC1,,"inconclusive: 22.4 µM [falling, single point]"
Cn1c(=O)n(C)c2cc(NC(=O)Cc3ccccc3[N+](=O)[O-])ccc21,inactive: -7.61%,
COc1cc(-c2cc(C(=O)Nc3ccc(O)cc3)c3ccccc3n2)cc(OC)c1OC,inconclusive: -12.3%,
CCCCNc1c(-c2cccc(Sc3ccc(OC)cc3)c2)nc2ccccn12,inconclusive: -6.22%,
Cc1ccn2cc(-c3ccc(NC(=O)c4ccco4)cc3)nc2c1,inconclusive: 4.24%,
